Experimental data published in PMC8474885.
No constants are given. Whether binding was seen depends on the method and setting. Binding seen in cells or lysates may run through a third protein. A result given as binding can be weak or reduced; the word gives no strength. Where a sequence is shown, tags or fusion partners need not be part of it.

Biological target: HA-tagged p113 (human)
Assay: co-IP; two-step (secondary) immunoprecipitation from SH-SY5Y cells stably transfected with HA-tagged p113, Flag-tagged ZRF1 and His-tagged BRD4

B1: Flag-tagged ZRF1 (protein, UniProt Q99543 1-621)
chain: MLLLPSAADGRGTAITHALTSASTLCQVEPVGRWFEAFVKRRNRNASASFQELEDKKELSEESEDEELQLEEFPMLKTLDPKDWKNQDHYAVLGLGHVRYKATQRQIKAAHKAMVLKHHPDKRKAAGEPIKEGDNDYFTCITKAYEMLSDPVKRRAFNSVDPTFDNSVPSKSEAKDNFFEVFTPVFERNSRWSNKKNVPKLGDMNSSFEDVDIFYSFWYNFDSWREFSYLDEEEKEKAECRDERRWIEKQNRATRAQRKKEEMNRIRTLVDNAYSCDPRIKKFKEEEKAKKEAEKKAKAEAKRKEQEAKEKQRQAELEAARLAKEKEEEEVRQQALLAKKEKDIQKKAIKKERQKLRNSCKTWNHFSDNEAERVKMMEEVEKLCDRLELASLQCLNETLTSCTKEVGKAALEKQIEEINEQIRKEKEEAEARMRQASKNTEKSTGGGGNGSKNWSEDDLQLLIKAVNLFPAGTNSRWEVIANYMNIHSSSGVKRTAKDVIGKAKSLQKLDPHQKDDINKKAFDKFKKEHGVVPQADNATPSERFEGPYTDFTPWTTEEQKLLEQALKTYPVNTPERWEKIAEAVPGRTKKDCMKRYKELVEMVKAKKAAQEQVLNASRAKK
For B1, the binding was “binds”.
